# Results taken from article PMC12431657, “Discovery and mechanistic insights of dibenzoylmethane as a broad spectrum inhibitor of coronavirus” (PLOS Pathogens, 2025).
# Where a name gives a salt, the structure may show the parent alone. Read-outs that look alike come from different tables or passages of the source. In all, about 3,300 compounds went through this assay and about 95 (3%) showed an effect of 50% or more. This is one part of the list.
# Test system: HCoV-229E
# Set-up: species or system Huh-7; HTS, protection from HCoV-229E induced cell death, luminescent cell viability (CellCounting-Lite 2.0), inhibition rate
# Conditions: 24 h post infection, 1 h compound pre-incubation, 10 µM, inhibitor
Compound,229E Inhibition rate,"229E Inhibition rate (229E Inhibition rate, 24 h)"
C=CCC(C)C(=O)O (centres unmarked) [2-Methyl-4-pentenoic Acid],10.3%,–
CCOC(=O)CC(=O)C(C)(C)C [Ethyl pivaloylacetate],42.2%,–
C[C@H](CO)C1=C(O)C(=O)c2c(ccc3c2CCCC3(C)C)C1=O [Neocryptotanshinone],7.2%,–
C/C=C/c1ccc(OC(C)=O)c(OC)c1 [Isoeugenol acetate],8.4%,–
C=C(NC(=O)c1csc(-c2nc3c(cc2O)-c2nc(cs2)C(=O)N[C@@H]([C@@H](C)O)C(=O)N/C(=C/C)c2nc(cs2)C(=O)N[C@H]2C[C@H](O)C(=O)OCc4cccc5[nH]c(c(C)c45)C(=O)SC[C@H](NC(=O)c4csc2n4)c2nc-3cs2)n1)C(N)=O [Nosiheptide],29.4%,–
O=C(O)Cc1cccc2ccccc12 [1-Naphthaleneacetic acid],18.6%,–
NC[C@@H]1O[C@H](O[C@H]2[C@@H](O)[C@H](O[C@@H]3[C@@H](O)[C@H](N)C[C@H](N)[C@H]3O[C@H]3O[C@H](CN)[C@@H](O)[C@H](O)[C@H]3N)O[C@@H]2CO)[C@H](N)[C@@H](O)[C@@H]1O [Neomycin (sulfate)],9.1%,–
C/C1=C/CC[C@H](C)C(=O)C[C@@H](C(C)C)C(=O)C1 [Curdione],11.6%,–
NC(=O)c1ccc[n+]([C@@H]2O[C@H](CO)[C@@H](O)[C@H]2O)c1 [Nicotinamide riboside (chloride)],18.1%,–
NC(CCCC(=O)O)C(=O)O (centres unmarked) [Aminoadipic acid],8%,–
O=C([O-])c1ccc[n+]([C@@H]2O[C@H](CO)[C@@H](O)[C@H]2O)c1 [Nicotinic acid riboside],16.3%,–
CC(O)(CC(=O)O)CC(=O)O [Meglutol],20.1%,–
CC(/C=C/C=C(\C)C(=O)O[C@@H]1O[C@H](CO[C@@H]2O[C@H](CO)[C@@H](O)[C@H](O)[C@H]2O)[C@@H](O)[C@H](O)[C@H]1O)=C\C=C\C=C(C)\C=C\C=C(/C)C(=O)O[C@@H]1O[C@H](CO[C@@H]2O[C@H](CO)[C@@H](O)[C@H](O)[C@H]2O)[C@@H](O)[C@H](O)[C@H]1O [Crocin],34.4%,–
CC1CCC(C(C)C)C(O)C1 (racemic) [DL-Menthol],12.1%,–
COc1cc(O)c(C(=O)/C=C/c2ccccc2)c(OC)c1 [Flavokawain B],40.9%,–
C=C[C@H]1[C@H](O[C@@H]2O[C@H](CO)[C@@H](O)[C@H](O)[C@H]2O)OC=C2C(=O)OCC[C@H]21 [Sweroside],9.8%,–
C[C@@]12C[C@@]3(O)O[C@@H](O1)[C@]1(COC(=O)c4ccccc4)[C@H]3C[C@@]12O[C@@H]1O[C@H](COC(=O)c2ccccc2)[C@@H](O)[C@H](O)[C@H]1O [Benzoylpaeoniflorin],4.9%,–
COc1ccc2c(c1OC)C(OC)N(C)c1c-2ccc2cc3c(cc12)OCO3 (centres unmarked) [Angoline],9%,–
Cc1ccc(-c2ccccc2)cc1 [4-Methylbiphenyl],11.9%,–

# Rewritten with tabs: entries from further up.
Compound	229E Inhibition rate	229E Inhibition rate (229E Inhibition rate, 24 h)
C=CCC(C)C(=O)O (centres unmarked) [2-Methyl-4-pentenoic Acid]	10.3%	–
C[C@H](CO)C1=C(O)C(=O)c2c(ccc3c2CCCC3(C)C)C1=O [Neocryptotanshinone]	7.2%	–
C/C=C/c1ccc(OC(C)=O)c(OC)c1 [Isoeugenol acetate]	8.4%	–
O=C(O)Cc1cccc2ccccc12 [1-Naphthaleneacetic acid]	18.6%	–
C/C1=C/CC[C@H](C)C(=O)C[C@@H](C(C)C)C(=O)C1 [Curdione]	11.6%	–
NC(=O)c1ccc[n+]([C@@H]2O[C@H](CO)[C@@H](O)[C@H]2O)c1 [Nicotinamide riboside (chloride)]	18.1%	–
CC(O)(CC(=O)O)CC(=O)O [Meglutol]	20.1%	–
CC(/C=C/C=C(\C)C(=O)O[C@@H]1O[C@H](CO[C@@H]2O[C@H](CO)[C@@H](O)[C@H](O)[C@H]2O)[C@@H](O)[C@H](O)[C@H]1O)=C\C=C\C=C(C)\C=C\C=C(/C)C(=O)O[C@@H]1O[C@H](CO[C@@H]2O[C@H](CO)[C@@H](O)[C@H](O)[C@H]2O)[C@@H](O)[C@H](O)[C@H]1O [Crocin]	34.4%	–
CC1CCC(C(C)C)C(O)C1 (racemic) [DL-Menthol]	12.1%	–
C=C[C@H]1[C@H](O[C@@H]2O[C@H](CO)[C@@H](O)[C@H](O)[C@H]2O)OC=C2C(=O)OCC[C@H]21 [Sweroside]	9.8%	–
COc1ccc2c(c1OC)C(OC)N(C)c1c-2ccc2cc3c(cc12)OCO3 (centres unmarked) [Angoline]	9%	–

# (list continues)

Compound,229E Inhibition rate,"229E Inhibition rate (229E Inhibition rate, 24 h)"
O=C(O)[C@H](O)Cc1ccc(O)c(O)c1 [Danshensu],12.4%,–
C[C@H]1[C@H](C)CC[C@]2(C(=O)O)CC[C@]3(C)C(=CC[C@@H]4[C@@]5(C)C[C@@H](O)[C@H](O)[C@@](C)(CO)[C@@H]5[C@H](O)C[C@]43C)[C@H]12 [Madecassic acid],5.1%,–
C/C=C(/C)C(=O)O[C@H]1c2cc(OC)c(OC)c(OC)c2-c2c(cc3c(c2OC)OCO3)C[C@H](C)[C@]1(C)O [Schisantherin B],54.7%,–
CC(C)=CCc1c(-c2ccc(O)c3c2OC(C)(C)C=C3)oc2cc(O)cc(O)c2c1=O [Kuwanon A],3.8%,–
CC(C)=CCc1cc(C(=O)/C=C/c2ccc(O)cc2)c(O)cc1O [Bavachalcone],6.1%,–
O=c1c2ccccc2[nH]c2ccccc12 [Acridone],9.8%,–
CN1CCN2c3ccccc3Cc3ccccc3C2C1 (centres unmarked) [Mianserin (hydrochloride)],0%,–
C[C@@H]1O[C@@H](O[C@H]2[C@H](Oc3cc(O)c4c(=O)cc(-c5ccc(O)c(O)c5)oc4c3)O[C@H](CO)[C@@H](O)[C@@H]2O)[C@H](O)[C@H](O)[C@H]1O [Lonicerin],10.5%,–
CCOC(=O)c1cc(O)c(O)c(O)c1 [Ethyl gallate],25.5%,–
CC1(C)CC[C@]2(C(=O)O)CC[C@]3(C)C(=CC[C@@H]4[C@@]5(C)CC[C@H](O[C@@H]6O[C@H](C(=O)O)[C@@H](O)[C@H](O)[C@H]6O)C(C)(C)[C@@H]5CC[C@]43C)[C@@H]2C1 [Calenduloside E],12.9%,–
O=c1[nH]c(=O)c2nc[nH]c2[nH]1 [Xanthine],9.9%,–
C[N+](C)(C)[C@@H](Cc1c[nH]c2ccccc12)C(=O)[O-] [Hypaphorine],13.1%,–
CCCCCCCCCCCC(C)=O [2-Tridecanone],18.3%,–
COc1cc(O)cc(OC)c1OC [Antiarol],7.9%,–
COc1ccc(-c2oc3cc(O)cc(O)c3c(=O)c2O)cc1O [Tamarixetin],20.9%,–
C[C@]12CC[C@@H](O)C[C@H]1CC[C@@H]1[C@@H]2[C@@H](O)C[C@@]2(C)[C@H]1CC[C@]2(O)C(=O)CO [Tetrahydrocortisol],8.8%,–
CC(C)=CCC[C@](C)(O)[C@H]1CC[C@]2(C)[C@@H]1[C@H](O)C[C@@H]1[C@@]3(C)CC[C@H](O)C(C)(C)[C@@H]3[C@@H](O[C@@H]3O[C@H](CO)[C@@H](O)[C@H](O)[C@H]3O[C@@H]3O[C@@H](C)[C@H](O)[C@@H](O)[C@H]3O)C[C@]12C [Ginsenoside Rg2],54.2%,–
COC(=O)/C=C/C(=O)OC [Dimethyl fumarate],44.6%,–
C[C@H](CCC(=O)NCC(=O)O)[C@H]1CC[C@H]2[C@@H]3[C@H](O)C[C@@H]4C[C@H](O)CC[C@]4(C)[C@H]3CC[C@]12C [Glycochenodeoxycholic acid],–,9.1%
